Data on two substances can be found in publication PMC10856354 (International Journal of Molecular Sciences, 2024).

The nature of the data set: general procedure: Fmoc solid-phase peptide synthesis; H-L-Cys(Acm)-2-chlorotrityl resin (substitution 0.40 mmol/g); HOBt/DIC. As to conditions: whole synthesis, scale of the general procedure 250 mg resin with a 0.4 mmol/g loading; for final HPLC purity: RP-HPLC, UV trace (system 2, Symmetry C18).

Some results are limits rather than exact numbers.

In the case of “DOTA(tris(^tBu))-Ala^1-Gly^2-Cys(Acm)^3-Lys(Boc)^4-Asn(Trt)^5-Cys(Trt)^6-Phe^7-DTrp(Boc)^8-Lys(Boc)^9-Thr(^tBu)^10-Cys(Trt)^11-Thr(^tBu)^12-Ser(^tBu)^13-Cys(Acm)^14”, the “final HPLC purity” value worked out at 94% and the isolated yield is recorded as 27%.

On to “DOTA(tris(^tBu))-Ala^1-Gly^2-Cys(Acm)^3-Lys(Boc)^4-Cys(Trt)^5-Phe^6-Phe^7-DTrp(Boc)^8-Lys(Boc)^9-Thr(^tBu)^10-Phe^11-Cys(Trt)^12-Ser(^tBu)^13-Cys(Acm)^14”, for which the “final HPLC purity” value is reported as above 93%. In addition, where the note is “overall”, the isolated yield is reported as 27%.
